The values that follow are results of earlier work, collected in US5444085A, “Methods of inhibiting HIV and inhibiting the activation of HIV” (Warner-Lambert Company, priority 1994, dated 1995).

Structures are written as SMILES.

This data set relates to HIV-infected cells. Conditions: Hamamoto et al. 1989; cited from earlier work.

Consider `CN[C@@H]1C[C@H]2O[C@@](C)([C@@H]1OC)n1c3ccccc3c3c4c(c5c6ccccc6n2c5c31)C(=O)NC4` [Staurosporine, staurosporine], for which the “inhibition of TPA-mediated CD4 down regulation and augmentation of HIV expression” value is given as “effective TPA inhibitor for both of these actions”.
